In patent publication US20060246471A1 (published 2006):
No constants are given. Whether binding was seen depends on the method and setting. Some results given as binding are weak or reduced against the parent protein; the word gives no strength.

Amino acid sequences for entries named in this document (tags omitted). Residues count along the entry.
UniProt P98170, residues 252-348: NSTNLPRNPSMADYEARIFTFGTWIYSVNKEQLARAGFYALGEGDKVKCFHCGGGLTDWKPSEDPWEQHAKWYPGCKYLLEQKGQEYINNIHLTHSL

Columns and labels:
Assay in all cases: fluorescence polarization
[1] = molecular target: T1, ML-IAP-BIR (amino acids 63-179 of accession number BIR7_HUMAN), bacterially expressed from pET15b (human) (UniProt Q96CA5)
T1 sequence (looked up): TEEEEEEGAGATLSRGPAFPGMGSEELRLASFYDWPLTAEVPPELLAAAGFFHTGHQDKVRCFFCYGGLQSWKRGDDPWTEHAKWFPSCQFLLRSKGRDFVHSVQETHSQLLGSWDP

[2] = molecular target: T2, MLBIR-Q (C-terminally truncated version of ML-IAP-BIR with the same number of amino acids as MLXBIR3 and MLXBIR3SG) (human) (UniProt Q96CA5)
T2 sequence (looked up): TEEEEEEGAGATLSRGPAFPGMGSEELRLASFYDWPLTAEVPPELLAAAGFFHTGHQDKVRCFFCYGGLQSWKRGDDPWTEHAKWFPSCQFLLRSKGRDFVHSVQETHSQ

[3] = molecular target: MLXBIR3 (ML-IAP-BIR with amino acids 160-179 replaced by amino acids 336-348 of XIAP-BIR3) (human) (UniProt Q96CA5+P98170)
[4] = molecular target: T3, MLXBIR3SG (ML-IAP chimera: ML-IAP framework with XIAP-BIR3 residues 336-348 in place of 160-179, and S150G)
T3 sequence: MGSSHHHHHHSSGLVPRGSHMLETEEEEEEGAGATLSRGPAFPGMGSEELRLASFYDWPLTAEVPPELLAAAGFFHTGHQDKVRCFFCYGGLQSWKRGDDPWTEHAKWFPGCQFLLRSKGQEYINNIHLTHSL

[5] = molecular target: XIAP-BIR3 (third BIR of XIAP, residues 252-348) (human) (UniProt P98170)

Measured: binding

AVPFAK (5-carboxyfluorescein (5-FAM) on Lys 6) [5-carboxyflourescein-conjugated AVPFAK(5-FAM)K (Hid-FAM)]
binds: all assays above
